The supplement of paper PMC10849652
This is one part of the list.

Chains of the proteins cited; added tags and fusions are not shown. Lines headed by an entry give the natural chain unless they say otherwise; changes in a name come on top.
UniProt Q13503: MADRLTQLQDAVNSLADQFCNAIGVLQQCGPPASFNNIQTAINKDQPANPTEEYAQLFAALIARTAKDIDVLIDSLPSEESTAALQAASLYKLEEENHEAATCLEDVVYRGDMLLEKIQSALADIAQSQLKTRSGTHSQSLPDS
UniProt A0JLT2: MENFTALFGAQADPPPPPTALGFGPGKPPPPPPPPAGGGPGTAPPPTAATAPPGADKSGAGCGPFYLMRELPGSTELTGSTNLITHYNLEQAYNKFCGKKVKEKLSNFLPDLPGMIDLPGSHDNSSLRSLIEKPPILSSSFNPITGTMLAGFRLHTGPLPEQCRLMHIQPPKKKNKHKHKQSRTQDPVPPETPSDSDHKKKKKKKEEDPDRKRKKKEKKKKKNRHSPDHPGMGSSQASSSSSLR
UniProt Q6NUT3: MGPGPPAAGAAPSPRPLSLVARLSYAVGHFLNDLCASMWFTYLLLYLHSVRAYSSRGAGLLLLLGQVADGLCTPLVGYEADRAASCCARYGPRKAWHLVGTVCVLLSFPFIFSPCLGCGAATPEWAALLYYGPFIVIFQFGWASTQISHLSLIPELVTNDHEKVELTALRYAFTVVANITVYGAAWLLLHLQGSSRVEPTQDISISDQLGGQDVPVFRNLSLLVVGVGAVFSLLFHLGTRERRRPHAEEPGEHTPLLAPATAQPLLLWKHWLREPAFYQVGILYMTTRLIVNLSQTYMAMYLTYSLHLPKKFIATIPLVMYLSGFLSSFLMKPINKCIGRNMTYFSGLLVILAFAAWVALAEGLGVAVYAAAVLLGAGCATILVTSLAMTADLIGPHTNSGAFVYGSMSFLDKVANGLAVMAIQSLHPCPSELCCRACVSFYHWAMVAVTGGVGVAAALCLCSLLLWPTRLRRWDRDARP
UniProt P43243: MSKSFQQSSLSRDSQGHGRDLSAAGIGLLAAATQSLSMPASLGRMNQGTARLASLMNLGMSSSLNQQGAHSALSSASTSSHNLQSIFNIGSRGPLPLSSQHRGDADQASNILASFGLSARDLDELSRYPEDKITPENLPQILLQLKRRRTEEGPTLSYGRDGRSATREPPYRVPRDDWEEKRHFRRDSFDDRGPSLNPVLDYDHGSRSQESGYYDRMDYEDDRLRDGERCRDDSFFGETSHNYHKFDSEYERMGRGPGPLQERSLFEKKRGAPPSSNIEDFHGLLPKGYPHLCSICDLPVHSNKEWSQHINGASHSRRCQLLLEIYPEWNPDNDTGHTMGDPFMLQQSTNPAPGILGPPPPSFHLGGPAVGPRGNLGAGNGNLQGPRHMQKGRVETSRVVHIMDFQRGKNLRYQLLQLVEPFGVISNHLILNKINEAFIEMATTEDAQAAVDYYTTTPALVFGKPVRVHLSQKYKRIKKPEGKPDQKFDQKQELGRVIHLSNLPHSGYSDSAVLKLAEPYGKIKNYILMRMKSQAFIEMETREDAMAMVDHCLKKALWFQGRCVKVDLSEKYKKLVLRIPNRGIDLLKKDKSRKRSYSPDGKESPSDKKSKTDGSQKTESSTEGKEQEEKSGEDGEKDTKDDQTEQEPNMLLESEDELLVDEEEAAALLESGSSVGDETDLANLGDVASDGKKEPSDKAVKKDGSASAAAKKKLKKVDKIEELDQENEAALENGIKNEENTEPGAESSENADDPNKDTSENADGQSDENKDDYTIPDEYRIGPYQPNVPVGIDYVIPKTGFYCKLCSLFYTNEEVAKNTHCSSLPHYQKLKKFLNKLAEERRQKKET
UniProt Q93074, whole entry, looked up: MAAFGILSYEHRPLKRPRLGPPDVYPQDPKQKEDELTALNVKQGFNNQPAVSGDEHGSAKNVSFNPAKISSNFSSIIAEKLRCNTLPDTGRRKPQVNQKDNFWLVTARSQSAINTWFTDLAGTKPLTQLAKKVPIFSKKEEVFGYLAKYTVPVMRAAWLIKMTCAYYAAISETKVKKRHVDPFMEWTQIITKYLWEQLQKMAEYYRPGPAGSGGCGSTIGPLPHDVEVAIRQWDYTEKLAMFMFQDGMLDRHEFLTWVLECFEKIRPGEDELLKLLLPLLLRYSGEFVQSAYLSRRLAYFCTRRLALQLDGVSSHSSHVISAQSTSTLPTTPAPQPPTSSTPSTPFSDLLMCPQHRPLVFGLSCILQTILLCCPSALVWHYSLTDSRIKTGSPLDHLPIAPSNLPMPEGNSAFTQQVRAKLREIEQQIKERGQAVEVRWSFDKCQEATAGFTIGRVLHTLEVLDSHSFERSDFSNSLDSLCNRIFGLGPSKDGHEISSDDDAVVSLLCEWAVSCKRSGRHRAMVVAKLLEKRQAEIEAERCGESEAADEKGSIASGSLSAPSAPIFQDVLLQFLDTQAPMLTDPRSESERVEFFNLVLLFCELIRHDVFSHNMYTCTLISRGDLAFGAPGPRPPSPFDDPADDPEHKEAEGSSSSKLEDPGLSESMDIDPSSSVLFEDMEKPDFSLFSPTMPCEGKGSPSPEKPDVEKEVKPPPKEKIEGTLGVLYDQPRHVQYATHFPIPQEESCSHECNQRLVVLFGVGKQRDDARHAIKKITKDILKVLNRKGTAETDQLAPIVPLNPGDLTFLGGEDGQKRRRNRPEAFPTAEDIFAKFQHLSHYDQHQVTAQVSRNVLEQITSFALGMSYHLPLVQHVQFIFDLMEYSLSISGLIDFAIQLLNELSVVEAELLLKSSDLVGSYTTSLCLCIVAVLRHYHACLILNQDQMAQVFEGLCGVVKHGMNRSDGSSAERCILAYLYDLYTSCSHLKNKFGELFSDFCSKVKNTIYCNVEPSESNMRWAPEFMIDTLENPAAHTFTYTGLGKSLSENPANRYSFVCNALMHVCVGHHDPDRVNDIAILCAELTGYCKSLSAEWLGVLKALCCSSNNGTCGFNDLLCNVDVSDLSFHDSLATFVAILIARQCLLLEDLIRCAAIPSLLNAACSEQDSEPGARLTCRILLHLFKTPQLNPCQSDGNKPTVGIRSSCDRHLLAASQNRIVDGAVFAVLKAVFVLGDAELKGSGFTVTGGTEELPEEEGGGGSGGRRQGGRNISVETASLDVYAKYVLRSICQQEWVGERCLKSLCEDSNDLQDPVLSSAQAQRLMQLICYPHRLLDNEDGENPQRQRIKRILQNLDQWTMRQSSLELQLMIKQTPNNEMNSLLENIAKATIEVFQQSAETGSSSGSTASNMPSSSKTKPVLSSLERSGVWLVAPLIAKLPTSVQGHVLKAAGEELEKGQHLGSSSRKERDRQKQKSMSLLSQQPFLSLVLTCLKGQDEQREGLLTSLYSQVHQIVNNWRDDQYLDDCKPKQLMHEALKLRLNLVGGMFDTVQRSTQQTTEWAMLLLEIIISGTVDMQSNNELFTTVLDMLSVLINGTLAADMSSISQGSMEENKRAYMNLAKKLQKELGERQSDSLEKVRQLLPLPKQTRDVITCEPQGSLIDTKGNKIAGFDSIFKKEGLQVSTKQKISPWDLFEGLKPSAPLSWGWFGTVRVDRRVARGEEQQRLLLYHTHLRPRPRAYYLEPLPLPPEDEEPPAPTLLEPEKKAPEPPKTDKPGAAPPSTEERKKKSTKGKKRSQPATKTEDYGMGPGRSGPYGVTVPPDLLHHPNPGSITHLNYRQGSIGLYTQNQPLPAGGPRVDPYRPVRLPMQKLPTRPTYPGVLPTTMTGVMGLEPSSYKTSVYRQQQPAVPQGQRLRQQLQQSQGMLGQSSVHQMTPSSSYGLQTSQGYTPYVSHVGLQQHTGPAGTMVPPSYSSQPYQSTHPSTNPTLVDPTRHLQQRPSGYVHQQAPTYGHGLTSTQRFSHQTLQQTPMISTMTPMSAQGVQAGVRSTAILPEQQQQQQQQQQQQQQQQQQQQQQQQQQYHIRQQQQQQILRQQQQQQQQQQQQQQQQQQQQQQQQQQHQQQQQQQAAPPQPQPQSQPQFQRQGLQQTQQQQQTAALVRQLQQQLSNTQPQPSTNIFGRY
UniProt P21741: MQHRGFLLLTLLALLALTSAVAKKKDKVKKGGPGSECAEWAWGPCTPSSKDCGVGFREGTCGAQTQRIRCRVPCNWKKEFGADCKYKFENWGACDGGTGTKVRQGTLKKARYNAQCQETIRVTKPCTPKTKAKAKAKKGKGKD
UniProt Q71F56: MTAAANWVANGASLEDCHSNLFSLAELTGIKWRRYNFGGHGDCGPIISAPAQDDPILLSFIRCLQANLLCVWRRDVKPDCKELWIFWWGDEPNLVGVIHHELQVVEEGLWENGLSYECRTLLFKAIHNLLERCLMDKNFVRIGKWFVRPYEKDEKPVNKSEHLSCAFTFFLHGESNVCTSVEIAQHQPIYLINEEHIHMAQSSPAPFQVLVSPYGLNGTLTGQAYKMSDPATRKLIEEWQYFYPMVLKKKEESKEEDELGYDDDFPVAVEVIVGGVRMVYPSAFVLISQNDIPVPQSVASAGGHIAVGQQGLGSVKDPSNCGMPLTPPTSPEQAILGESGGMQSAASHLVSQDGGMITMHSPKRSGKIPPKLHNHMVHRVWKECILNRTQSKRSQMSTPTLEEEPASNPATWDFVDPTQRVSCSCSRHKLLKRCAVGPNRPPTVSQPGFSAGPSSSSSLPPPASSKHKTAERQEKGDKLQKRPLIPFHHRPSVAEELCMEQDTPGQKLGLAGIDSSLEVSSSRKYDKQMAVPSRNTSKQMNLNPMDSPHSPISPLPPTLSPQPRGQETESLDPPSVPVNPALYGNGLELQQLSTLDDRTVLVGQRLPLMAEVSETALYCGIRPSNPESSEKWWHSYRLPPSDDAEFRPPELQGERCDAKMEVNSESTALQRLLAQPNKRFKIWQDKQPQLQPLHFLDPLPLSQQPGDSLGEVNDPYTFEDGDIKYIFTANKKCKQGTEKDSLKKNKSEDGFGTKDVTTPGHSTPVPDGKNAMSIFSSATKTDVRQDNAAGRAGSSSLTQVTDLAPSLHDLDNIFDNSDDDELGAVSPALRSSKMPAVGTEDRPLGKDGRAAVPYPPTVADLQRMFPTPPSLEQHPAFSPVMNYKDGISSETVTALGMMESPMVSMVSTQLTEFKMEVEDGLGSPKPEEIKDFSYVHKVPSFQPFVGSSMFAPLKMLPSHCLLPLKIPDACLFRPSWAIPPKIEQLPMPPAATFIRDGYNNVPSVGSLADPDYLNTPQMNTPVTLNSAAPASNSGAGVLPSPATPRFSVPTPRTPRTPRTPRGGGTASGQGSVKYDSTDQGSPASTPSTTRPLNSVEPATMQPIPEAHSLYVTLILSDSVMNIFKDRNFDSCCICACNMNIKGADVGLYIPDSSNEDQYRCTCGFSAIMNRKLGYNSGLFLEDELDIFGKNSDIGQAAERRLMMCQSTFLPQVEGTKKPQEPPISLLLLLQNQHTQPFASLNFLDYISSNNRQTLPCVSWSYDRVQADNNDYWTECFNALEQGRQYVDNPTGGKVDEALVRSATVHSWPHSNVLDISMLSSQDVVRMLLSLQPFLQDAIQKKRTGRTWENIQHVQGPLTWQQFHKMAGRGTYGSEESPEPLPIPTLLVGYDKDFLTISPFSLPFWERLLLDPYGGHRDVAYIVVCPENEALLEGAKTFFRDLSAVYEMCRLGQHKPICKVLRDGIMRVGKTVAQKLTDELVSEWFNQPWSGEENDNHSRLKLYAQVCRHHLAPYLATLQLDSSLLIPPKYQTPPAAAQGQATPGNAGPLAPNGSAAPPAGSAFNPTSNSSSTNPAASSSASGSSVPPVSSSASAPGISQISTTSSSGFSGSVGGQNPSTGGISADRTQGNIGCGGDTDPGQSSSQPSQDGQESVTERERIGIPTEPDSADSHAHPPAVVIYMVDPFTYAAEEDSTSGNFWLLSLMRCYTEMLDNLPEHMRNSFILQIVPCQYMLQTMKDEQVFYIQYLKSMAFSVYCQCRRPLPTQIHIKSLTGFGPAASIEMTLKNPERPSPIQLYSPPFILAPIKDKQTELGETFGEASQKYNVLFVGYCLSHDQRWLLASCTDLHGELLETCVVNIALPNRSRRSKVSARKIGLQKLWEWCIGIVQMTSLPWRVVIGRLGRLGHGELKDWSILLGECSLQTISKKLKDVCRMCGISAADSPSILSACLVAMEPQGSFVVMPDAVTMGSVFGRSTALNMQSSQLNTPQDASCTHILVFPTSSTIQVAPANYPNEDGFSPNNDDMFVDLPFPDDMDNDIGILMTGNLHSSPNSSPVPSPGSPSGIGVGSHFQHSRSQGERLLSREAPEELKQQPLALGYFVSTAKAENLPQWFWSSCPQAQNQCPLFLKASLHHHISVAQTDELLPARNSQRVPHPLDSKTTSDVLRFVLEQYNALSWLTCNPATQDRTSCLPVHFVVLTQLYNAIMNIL
UniProt Q8TCB7: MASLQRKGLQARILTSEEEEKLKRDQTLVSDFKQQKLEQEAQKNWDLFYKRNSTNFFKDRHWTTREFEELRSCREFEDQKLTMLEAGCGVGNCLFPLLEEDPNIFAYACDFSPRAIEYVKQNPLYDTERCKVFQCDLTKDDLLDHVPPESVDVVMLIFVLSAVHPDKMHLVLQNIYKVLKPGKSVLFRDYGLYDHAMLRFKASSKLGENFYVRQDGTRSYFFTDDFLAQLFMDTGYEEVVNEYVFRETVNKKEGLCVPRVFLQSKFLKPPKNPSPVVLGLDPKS

Columns and labels:
Assay in all cases: log2 fold change, soluble protein after heating vs DMSO (PISA); higher = thermal stabilisation; K562 cells, 10 uM, 30 min; active = over 0.2 and 3.5 SD of the protein, either way, in both replicates (recomputed)
[1] = compound: CC1=C(SC2=C1C(=N[C@H](C3=NN=C(N32)C)CC(=O)N)C4=CC=C(C=C4)Cl)C
In short: (§1)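 K562 cells (2×10^6 cells/mL) were treated with 10 μM compound for 30 min, and aliquots were heated for 3 min over 48°C-58°C. Pooled aliquots were extracted in PBS with 0.5% NP-40 at 4°C, and the supernatant after 21,000xg for 90 min was measured by TMTpro 16plex LC-MS/MS with channel sums equalised. Reported thermal stability, relative to control samples and from duplicates, is a log2 fold change.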

[2] = compound: Cc1sc2c(c1C)C(c1ccc(Cl)cc1)=N[C@@H](CC(=O)OC(C)(C)C)c1nnc(C)n1-2
In short: as §1

[3] = compound: c1ccc([C@@H]2C[C@H]2NC2CCNCC2)cc1
In short: as §1

[4] = compound: C1=CC=C(C=C1)[C@H](COC2=CC3=C(C=C2)NC(=O)N3)NC(=O)C4=CC=CN(C4=O)CC5=CC(=C(C=C5)F)F
In short: as §1

[5] = compound: CC1=C2C(=CC=C1)N=C(N(C2=O)C3=CC=CC=C3C)CN4C=NC5=C(N=CN=C54)N
In short: as §1

Row | Target | log2 fold change [1] | log2 fold change [2] | log2 fold change [3] | log2 fold change [4] | log2 fold change [5]
1 | MED21 (UniProt Q13503) | inactive: -0.035 | inactive: -0.359 | inactive: -0.035 | – | –
2 | MCRIP2 (UniProt Q9BUT9) | inactive: 0.145 | inactive: -0.045 | inactive: -0.103 | inactive: -0.05 | –
3 | MEIS2 (UniProt O14770) | inactive: 0.162 | – | inactive: -0.018 | inactive: 0.019 | –
4 | MEX3B (UniProt Q6ZN04) | – | inactive: 0.111 | – | inactive: 0.137 | –
5 | MBIP (UniProt Q9NS73) | – | inactive: -0.011 | – | inactive: 0.18 | inactive: 0.112
6 | METTL17 isoform 3 (UniProt Q9H7H0) | inactive: -0.173 | – | inactive: 0.091 | – | –
7 | MED19 (UniProt A0JLT2) | – | – | – | inactive: 0.005 | inactive: -0.08
8 | MFAP3 (UniProt P55082) | – | inactive: -0.155 | – | inactive: 0.007 | inactive: 0.25
9 | MFSD9 (UniProt Q8NBP5) | inactive: -0.057 | – | inactive: 0.05 | – | –
10 | MED26 (UniProt O95402) | inactive: -0.046 | – | inactive: 0.078 | – | inactive: 0.153
11 | MEF2C isoform 2 (UniProt Q06413) | – | inactive: -0.198 | – | – | –
12 | MFSD12 isoform 3 (UniProt Q6NUT3) | inactive: 0.026 | inactive: -0.129 | inactive: 0.135 | – | –
13 | MED10 (UniProt Q9BTT4) | inactive: 0.043 | inactive: -0.075 | inactive: 0.03 | – | inactive: -0.108
14 | MED11 (UniProt Q9P086) | – | inactive: 0.007 | – | – | –
15 | MATR3 (UniProt P43243) | – | inactive: -0.057 | – | inactive: -0.014 | inactive: 0.078
16 | MED12 isoform 2 (UniProt Q93074) | – | inactive: -0.434 | – | inactive: -0.002 | –
17 | MASP1 isoform 2 (UniProt P48740) | inactive: -0.165 | – | inactive: -0.206 | – | –
18 | MEF2A (UniProt Q02078) | – | inactive: 0.089 | – | – | –
19 | MEGF8 (UniProt Q7Z7M0) | – | inactive: -0.149 | – | – | –
20 | MATK isoform 2 (UniProt P42679) | inactive: 0.218 | – | inactive: -0.292 | – | inactive: 0.145
21 | MED17 (UniProt Q9NVC6) | inactive: -0.031 | inactive: 0.032 | inactive: -0.011 | – | inactive: 0.038
22 | MBTPS2 (UniProt O43462) | inactive: -0.213 | inactive: -0.246 | inactive: 0.145 | – | inactive: 0.145
23 | MGRN1 isoform 2 (UniProt O60291) | inactive: -0.004 | inactive: 0.036 | inactive: 0.086 | inactive: -0.088 | –
24 | MCOLN3 (UniProt Q8TDD5) | – | inactive: 0.039 | – | inactive: -0.075 | –
25 | MFSD14B (UniProt Q5SR56) | inactive: 0.06 | inactive: 0.086 | inactive: 0.12 | – | inactive: -0.086
26 | MEGF10 (UniProt Q96KG7) | – | inactive: 0.197 | – | – | –
27 | MDK (UniProt P21741) | inactive: -0.408 | inactive: 0.255 | inactive: 0.151 | inactive: -0.045 | –
28 | MED13L (UniProt Q71F56) | inactive: -0.133 | – | inactive: -0.029 | – | inactive: 0.104
29 | METTL6 (UniProt Q8TCB7) | inactive: 0.001 | inactive: 0.017 | inactive: 0.053 | inactive: -0.116 | –

A different layout for part of the listing above:
Row,Target,log2 fold change [1],log2 fold change [2],log2 fold change [3],log2 fold change [4],log2 fold change [5]
18,MEF2A (UniProt Q02078),–,inactive: 0.089,–,–,–
19,MEGF8 (UniProt Q7Z7M0),–,inactive: -0.149,–,–,–
